Experimental data: PubChem BioAssay AID686938 (Drosophila RNAi Screening Center, 2013)
Test: 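Looking for CRAC channel components and the factors controlling them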 (primary screen). Cell system: Drosophila S2R+ cells. Reagent: long dsRNA against Drosophila genes, about 0.25 µg dsRNA per well, roughly 10,000 cells. Time to read-out: 5 days of knock-down before the calcium assay. Treatment: thapsigargin (SERCA pump blocker) to empty calcium stores; entry signal taken 4 min after adding it. Measured: 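Duplicate raw fluo-4 intensities per well from a plate reader, at rest and four minutes after thapsigargin emptied calcium stores; entry-to-rest ratio filled for only some wells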. Reading the numbers: calcium entry signal: higher = stronger calcium signal after store depletion; resting calcium signal: higher = higher resting calcium signal. Call rule: 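Hit if the duplicate-averaged plate z-score for entry over resting signal is under −3; wells with weak total dye signal (Fmax z < −2) or more than 5 off-targets removed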. Calls: active = strongly reduced calcium entry; inactive = no strong reduction.
In all, the deposit lists about 23,000 reagents; this is a random part of those that have a named target and a result. Of all reagents, 75 (0.33%) got an active call. 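Raw plate signals without normalisation; calls rest on plate z-scores that were not deposited; ratio present for only 364 wells.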 Reagents against one gene are numbered here. Names joined by + are all predicted targets of the reagent. Not stated in the record: the dose of the treatment.

gene knocked down,dsRNA no.,"calcium entry signal, replicate 1 (fluorescence units)","calcium entry signal, replicate 2 (fluorescence units)","resting calcium signal, replicate 1 (fluorescence units)","resting calcium signal, replicate 2 (fluorescence units)",Call
GstD5 (Glutathione S transferase D5),1,3.08e7,3.17e7,1.53e7,1.55e7,inactive
Pstk + CG14210 + Tim9b,1,2.14e7,2.00e7,1.44e7,1.20e7,inactive
CG10752,1,5.54e7,3.86e7,3.41e7,1.72e7,inactive
CG6763,1,3.51e7,5.13e7,1.92e7,2.18e7,inactive
mdy (midway),1,2.73e7,3.86e7,1.64e7,1.71e7,inactive
mdy (midway),2,5.55e7,,2.70e7,,inactive
CG14321,1,1.85e7,2.97e7,2.83e7,1.24e7,inactive
hui (hase und igel),1,3.90e7,4.79e7,1.76e7,2.21e7,inactive
CG31928,1,4.54e7,,2.48e7,,inactive
CG30345,1,2.57e7,3.73e7,1.30e7,1.63e7,inactive
CG8833,1,3.24e7,3.78e7,1.41e7,2.70e7,inactive
Gld (Glucose dehydrogenase),1,4.18e7,4.69e7,2.08e7,2.04e7,inactive
CG13786,1,3.81e7,3.55e7,1.94e7,1.65e7,inactive

Entries listed so far whose gene name starts with C or c (7):
gene knocked down,dsRNA no.,"calcium entry signal, replicate 1 (fluorescence units)","calcium entry signal, replicate 2 (fluorescence units)","resting calcium signal, replicate 1 (fluorescence units)","resting calcium signal, replicate 2 (fluorescence units)",Call
CG10752,1,5.54e7,3.86e7,3.41e7,1.72e7,inactive
CG6763,1,3.51e7,5.13e7,1.92e7,2.18e7,inactive
CG14321,1,1.85e7,2.97e7,2.83e7,1.24e7,inactive
CG31928,1,4.54e7,,2.48e7,,inactive
CG30345,1,2.57e7,3.73e7,1.30e7,1.63e7,inactive
CG8833,1,3.24e7,3.78e7,1.41e7,2.70e7,inactive
CG13786,1,3.81e7,3.55e7,1.94e7,1.65e7,inactive

Continued.
gene knocked down,dsRNA no.,"calcium entry signal, replicate 1 (fluorescence units)","calcium entry signal, replicate 2 (fluorescence units)","resting calcium signal, replicate 1 (fluorescence units)","resting calcium signal, replicate 2 (fluorescence units)",Call
CG11857,1,4.33e7,6.11e7,2.75e7,3.46e7,inactive
CG13723,1,2.59e7,5.56e7,1.38e7,2.12e7,inactive
Cul5 (Cullin 5),1,3.56e7,6.14e7,1.88e7,2.52e7,inactive
CG12848,1,5.26e7,4.92e7,2.31e7,2.15e7,inactive
spn-E (spindle E),1,3.08e7,4.23e7,1.46e7,5.64e7,inactive
ced-6,1,4.50e7,3.13e7,2.27e7,1.61e7,inactive
CG3436,1,1.07e7,,7.82e6,,inactive
CG34006 (retired record),1,3.63e7,3.01e7,1.55e7,1.47e7,inactive
Sse (Separase),1,2.63e7,1.96e7,2.23e7,1.06e7,inactive
Gr22a (Gustatory receptor 22a),1,3.26e7,5.88e7,1.65e7,2.95e7,inactive
CG42820,1,4.64e7,5.51e7,2.04e7,2.62e7,inactive
